Reference: doi:10.1101/812149
These are yes or no findings as the source states them, for the method shown. Binding seen in cells or lysates may run through a third protein. Some entries that bind do so weakly or less than the wild type.

Protein sequences, listed by entry. Tags and fused reporters are not part of them.
UniProt P43694: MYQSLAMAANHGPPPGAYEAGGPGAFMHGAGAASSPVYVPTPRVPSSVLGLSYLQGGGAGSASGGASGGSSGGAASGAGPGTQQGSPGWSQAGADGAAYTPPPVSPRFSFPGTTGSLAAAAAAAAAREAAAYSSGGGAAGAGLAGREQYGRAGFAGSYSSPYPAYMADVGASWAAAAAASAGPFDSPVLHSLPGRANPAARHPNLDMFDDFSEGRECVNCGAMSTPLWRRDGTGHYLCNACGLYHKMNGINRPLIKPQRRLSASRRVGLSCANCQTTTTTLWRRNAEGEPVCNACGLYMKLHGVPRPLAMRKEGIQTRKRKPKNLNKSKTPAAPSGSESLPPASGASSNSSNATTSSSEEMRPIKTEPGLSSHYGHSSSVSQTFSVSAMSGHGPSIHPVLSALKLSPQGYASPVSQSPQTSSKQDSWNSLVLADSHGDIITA
UniProt Q92908: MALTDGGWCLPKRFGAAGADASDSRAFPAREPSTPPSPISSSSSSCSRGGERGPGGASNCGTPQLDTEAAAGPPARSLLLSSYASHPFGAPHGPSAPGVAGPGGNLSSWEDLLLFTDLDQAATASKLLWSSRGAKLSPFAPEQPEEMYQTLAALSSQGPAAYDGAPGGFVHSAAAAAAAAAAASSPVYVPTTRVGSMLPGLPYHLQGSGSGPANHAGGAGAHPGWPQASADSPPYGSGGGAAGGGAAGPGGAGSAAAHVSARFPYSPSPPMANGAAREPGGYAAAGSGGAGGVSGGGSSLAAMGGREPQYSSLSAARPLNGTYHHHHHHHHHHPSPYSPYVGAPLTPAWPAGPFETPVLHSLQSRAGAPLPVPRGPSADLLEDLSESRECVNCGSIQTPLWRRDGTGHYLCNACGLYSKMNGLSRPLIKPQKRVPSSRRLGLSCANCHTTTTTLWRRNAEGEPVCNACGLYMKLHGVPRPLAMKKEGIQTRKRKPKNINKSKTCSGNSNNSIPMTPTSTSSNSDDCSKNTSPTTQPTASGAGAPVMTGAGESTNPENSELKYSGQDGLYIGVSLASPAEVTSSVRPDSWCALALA
UniProt Q13887: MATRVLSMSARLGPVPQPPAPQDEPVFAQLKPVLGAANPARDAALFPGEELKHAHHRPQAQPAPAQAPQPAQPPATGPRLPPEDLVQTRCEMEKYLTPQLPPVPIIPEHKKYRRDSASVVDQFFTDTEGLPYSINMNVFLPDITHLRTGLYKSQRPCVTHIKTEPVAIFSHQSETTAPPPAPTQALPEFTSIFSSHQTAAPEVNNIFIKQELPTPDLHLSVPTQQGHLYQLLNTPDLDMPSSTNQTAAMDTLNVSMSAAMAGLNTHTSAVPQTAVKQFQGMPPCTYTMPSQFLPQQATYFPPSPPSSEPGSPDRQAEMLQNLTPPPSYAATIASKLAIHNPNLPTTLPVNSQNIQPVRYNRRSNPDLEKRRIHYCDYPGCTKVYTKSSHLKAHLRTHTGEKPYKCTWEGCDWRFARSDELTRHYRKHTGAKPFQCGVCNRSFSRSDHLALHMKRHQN

Assays:
[1] = target: GATA4 (human (endogenous in Eso26)) (UniProt P43694); assay: co-IP
[2] = target: GATA6 (human (endogenous in Eso26)) (UniProt Q92908); assay: co-IP

Row | binding [1] | binding [2] | Substance
1 | binds | – | GATA6 (from UniProt Q92908 1-595)
2 | binds | binds | KLF5 (from UniProt Q13887 1-457)
